# Experimental data: PubChem BioAssay AID2685 (National Center for Advancing Translational Sciences (NCATS), 2010)
# This is one part of the list. These are further read-outs of the screen, such as a control signal, another cell line or another target. No call is given for them. Compounds called inactive in the main read-out are mostly missing here. Words in brackets tell the shape of the fitted curve; partial curves, single points and poor fits give uncertain potencies.
# Assay: qHTS Assay for Lipid Storage Modulators in Drosophila S3 Cells;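 as to cell number change: cells counted by Cell Tracker Red CMTPX staining in the red channel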
# Settings: BODIPY lipid droplet fluorescence, 18-24 h; for cell number change: measured here: cell count max response, cells fed with added oleic acid
# Method in brief: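 Drosophila S3 cells loaded with oleic acid (400 uM, as added) and compounds at several concentrations; lipid droplets imaged by 488-nm laser-scanning cytometry, 500–530 nm intensity and object ratio to cell channel. Percent activity normalized to 20 uM Triacsin C.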
# [1] = measured here: cell number channel AC50, cells fed with added oleic acid
# [2] = measured here: lipid fluorescence (Fed channel) AC50, cells fed with added oleic acid
Structure (SMILES),cell number change [%],AC50 [1],AC50 [2]
CCNC(=S)NS(=O)(=O)c1ccccc1,-19.8,–,–
Cc1nc2sc(C(c3ccccc3)N3CCN(c4ccccc4F)CC3)c(O)n2n1 (configuration not stated),171,"16.4 µM [rising, partial curve]","16.4 µM [rising, partial curve]"
Cc1cccc(N(CC(=O)NCC2CCCO2)C(=O)CNS(=O)(=O)c2ccc(Cl)cc2)c1 (configuration not stated),25.8,–,–
Cc1ccc(C(=O)NC(C)c2ccc3c(c2)OCO3)s1 (configuration not stated),14.9,–,–
CCCS(=O)(=O)c1c(S(=O)(=O)CCC)c2c(N)cccn2c1C(=O)c1ccc(F)cc1,6.75,–,"2.91 µM [rising, single point]"
CSc1nnc2c3c4c(sc3c(=O)n(-c3ccccc3)n12)CC(C)(C)OC4,-3.23,–,"29.1 µM [rising, single point]"
COc1ccc(N2CC(C(=O)Nc3nnc(SCCC4OCCO4)s3)CC2=O)cc1 (configuration not stated),-45.7,"0.00461 µM [falling, full curve, poor fit]","0.0058 µM [falling, full curve, poor fit]"
COCC(C)OC(=O)c1c(N)n(CCCN2CCOCC2)c2nc3ccccc3nc12 (configuration not stated),18.7,–,"1.84 µM [falling, single point]"
COc1cccc(-n2nc(C(=O)O)c3ccccc3c2=O)c1,-85.3,"29.1 µM [falling, single point]",–
C=CCSc1nc2nc(C)cc(C)n2n1,19.8,–,–
COc1ccc(C(=O)Nn2cnc3scc(-c4cccs4)c3c2=O)c(O)c1,11.9,–,"4.11 µM [rising, full curve, poor fit]"
COc1ccc(C)cc1S(=O)(=O)N(C)CC(=O)NC1CCCCCC1,43.4,"0.13 µM [rising, full curve, poor fit]","0.184 µM [rising, full curve]"
Cc1csc(SCC(=O)Nc2ccccc2C)n1,40.3,"29.1 µM [rising, single point]","20.6 µM [rising, partial curve, poor fit]"
COc1ccc(C2C(C(=O)N3CCCC3)c3cc(OC)c(OC)cc3C(=O)N2C)cc1 (configuration not stated),-1.72,–,–
CCN=C1Sc2nc3ccc(OCC)cc3cc2CN1CCOC,–,"0.58 µM [rising, full curve]","1.3 µM [rising, full curve]"
O=C1OCC2=C1C(c1ccc(Cl)cc1)CC(=O)N2c1ccc(F)cc1 (configuration not stated),-17.8,–,–
O=C(CSc1nnnn1-c1cccc(C(=O)O)c1)NC(c1ccccc1)c1ccccc1,25.4,–,"0.00461 µM [falling, full curve, poor fit]"

# Record cards, as listed above.
# `Cc1ccc(C(=O)NC(C)c2ccc3c(c2)OCO3)s1` (configuration not stated) in the list: cell number change [%]: 14.9
# `CCNC(=S)NS(=O)(=O)c1ccccc1` in the list: cell number change [%]: -19.8
